This passage reports binding results from patent US12570688.

The assay addresses T1, SENP1 (UniProt Q9P0U3).
T1 sequence (looked up): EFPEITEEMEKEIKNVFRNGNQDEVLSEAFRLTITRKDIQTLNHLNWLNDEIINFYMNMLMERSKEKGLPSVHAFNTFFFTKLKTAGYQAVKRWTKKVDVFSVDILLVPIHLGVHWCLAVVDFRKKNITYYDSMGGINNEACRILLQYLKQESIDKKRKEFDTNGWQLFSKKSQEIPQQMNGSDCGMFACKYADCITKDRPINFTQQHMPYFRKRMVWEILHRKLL
The assay can be described thus: covalent adduct formation, gel (FIG. 4C).

Results are given in words; binding and its absence hold for the method and conditions named. Some entries that bind do so weakly or less than the wild type. Tags and fused reporters may be left off the sequences shown.

B1: FLAG-SUMO4-propargylamine conjugate (protein, UniProt Q6EEV6 1-92, looked up, not shown: small tags and cut ends)
chain: MANEKPTEEVKTENNNHINLKVAGQDGSVVQFKIKRQTPLSKLMKAYAEPRGLSVKQIRFRFGGQPISGTDKPAQLEMEDEDTIDVFQQPTG
modifications: C-terminal glycine replaced by propargylamine (Pa)
In the case of B1, the binding entry is “binds”.
